Primary screen of a compound library

The chains behind the UniProt entries cited, without tags or fusion partners.
UniProt E9BF75, entry or part of it: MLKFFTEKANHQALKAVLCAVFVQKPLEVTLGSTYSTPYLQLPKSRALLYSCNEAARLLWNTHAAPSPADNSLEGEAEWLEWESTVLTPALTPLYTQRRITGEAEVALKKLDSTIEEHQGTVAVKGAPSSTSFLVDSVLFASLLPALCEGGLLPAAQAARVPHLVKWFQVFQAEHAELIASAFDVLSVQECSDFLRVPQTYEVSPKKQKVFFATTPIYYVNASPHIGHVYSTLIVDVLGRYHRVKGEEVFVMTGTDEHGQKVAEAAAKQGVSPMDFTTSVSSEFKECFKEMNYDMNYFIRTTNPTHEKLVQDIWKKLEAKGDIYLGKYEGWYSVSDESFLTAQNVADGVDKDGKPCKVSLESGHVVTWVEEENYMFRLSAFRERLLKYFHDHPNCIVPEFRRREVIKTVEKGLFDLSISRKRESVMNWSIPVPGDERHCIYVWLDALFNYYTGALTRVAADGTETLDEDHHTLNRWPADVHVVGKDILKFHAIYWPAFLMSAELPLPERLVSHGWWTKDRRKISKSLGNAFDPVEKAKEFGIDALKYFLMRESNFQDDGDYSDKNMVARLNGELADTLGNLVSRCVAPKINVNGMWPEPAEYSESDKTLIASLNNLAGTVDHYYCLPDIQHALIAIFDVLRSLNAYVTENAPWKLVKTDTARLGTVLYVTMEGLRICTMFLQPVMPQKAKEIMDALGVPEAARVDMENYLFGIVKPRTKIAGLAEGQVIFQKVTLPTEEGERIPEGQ

The values are deposited in ChEMBL (CHEMBL3988442, “University of Dundee, Small-Polar-MMV Screening Library” (2021)).

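Primary screen of methionyl-tRNA synthetase; the read-out is not stated. Target: Methionyl-tRNA synthetase (putative), Leishmania donovani (UniProt E9BF75). The test concentration is not given. The values are filed as inhibition. Size under these conditions: about 68,000 compounds, about 24 of them at 50% or above in at least one test.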

Results are percentages, as filed.
The record does not define 0% and 100%; most values in the screen are far below 50% and negative numbers occur (in some assays of this library far below -100).
Compounds were drawn at random from those tested, without regard to their results.

| structure | inhibition |
|---|---|
| `COCCc1noc(CN2CCCC2c2noc(C(C)C)n2)n1` (stereo unspecified) | 0.2725 |
| `O=C(N1CCCC1)N1CCC2(CCN(Cc3ccccn3)C2=O)C1` (stereo unspecified) | 2.5 |
| `O=C(Nc1cn[nH]c1)N(CCO)C1CCc2ccccc21` (stereo unspecified) | 10.45 |
| `CCN(CC)CCNC(=O)CCc1c(C)nn(-c2ccccc2Br)c1C` | 0.8333 |
| `Cc1ccc([C@@]2(O)CC[C@@H]3CN(S(=O)(=O)C(C)C)C[C@@H]32)cc1` | 11.58 |
| `CCC(C)NC(=O)CS(=O)(=O)Cc1cc(C)ccc1C` (stereo unspecified) | 12.22 |
| `CC(Cc1cn(CCc2n[nH]c(=O)[nH]2)nn1)c1ccccc1` (stereo unspecified) | 13.84 |
| `Cc1ccc(F)c(NS(=O)(=O)c2cc(C(=O)O)oc2C)c1` | 7.692 |
| `COc1nc2c(cc1C(=O)N1CC[C@H](CO)[C@@H](O)C1)CCC2` | 16.37 |
| `COc1cc(C)c(NC(=O)CCn2cccc2)cc1OC` | 12.1 |
| `Cc1noc(C(C)C)c1C(=O)NCCCN1CCC(C)CC1` | 13.07 |
| `Cc1cc(C)c2cc(CNCC3CCCO3)c3nn(C)c(=O)n3c2c1` (stereo unspecified) | 16.1 |
| `c1cc(-c2nc3c(c(NCCc4c[nH]cn4)n2)CCNCC3)ccn1` | -8.591 |
| `Cc1n[nH]cc1CNCC(c1cccc(F)c1)N(C)C` (stereo unspecified) | 9.42 |
| `O=S1(=O)NC(c2ccnc(N3CCCCC3)n2)=Nc2ccccc21` | 2.857 |
| `N#Cc1ccccc1CN1C[C@@H]2CC[C@H](C1)N(CC1CCC1)C2=O` | 19.4 |
| `NC(=O)C1CCN(C(=O)c2ccc(Sc3ccccn3)cc2)CC1` | 8.579 |
| `COc1ccc(NC(C)C(=O)NCCc2cccs2)cc1F` (stereo unspecified) | 3.448 |
| `CS(=O)(=O)N1CC[C@H]2O[C@H](C(=O)NCCc3ccccn3)CC[C@H]21` | 7.407 |
| `Cc1nc(C)c(C(=O)NCCn2nc3ccccn3c2=O)s1` | 9.841 |
| `COc1cccc(C(=O)N2CCc3c(nc(N)[nH]c3=O)C2)c1C` | 6.812 |
| `Cc1nn2c(N3CCC(O)C3)cc(-c3ccccc3)nc2c1C` (stereo unspecified) | 8.5 |
| `O=C(c1ccc(F)cc1F)N1CCN(C(=O)C2CCCCC2)CC1` | 16.42 |
| `O=C(c1ccc(S(=O)(=O)NCC(F)F)cc1)N1C[C@H]2CNC[C@H]2C1` | 7.625 |
| `O=C(c1ccc[nH]1)N1CCC2(CC1)COCCN(c1nccs1)C2` | 17.07 |
| `Cc1cc(NC(=O)C2CCN(c3ncccc3C#N)CC2)no1` | 3.073 |
| `COc1ccccc1CNc1c(N2CCN(C(C)=O)CC2)c(=O)c1=O` | 12.33 |
| `Cc1nc(CN2CCCN(C(=O)CCc3ccco3)CC2)cs1` | 22.79 |
| `C=C1C(C)(C)[C@H]2CC[C@]1(C(=O)N1CCC(n3cc(CO)nn3)CC1)C2` | 20.72 |
| `Cc1ccc(O)c(CNC2CCc3nc(C)nn3C2)n1` (stereo unspecified) | 6.197 |
| `O=c1[nH]cnc2c1CCN(S(=O)(=O)c1ccc(Cl)cc1)C2` | 16.51 |
| `CC(O)CN1CCN(Cc2csc(-c3cnn(C)c3)n2)CC1` (stereo unspecified) | 15.3 |
| `CCC(O)CN(c1ccccc1)S(=O)(=O)c1cnc(C)s1` (stereo unspecified) | 2.518 |
| `Cc1nc(C(C)(C)NCc2ncc(C3CC3)o2)sc1C` | 6.72 |
| `Cc1n[nH]c(C)c1CNCC(O)c1ccc(F)c(F)c1` (stereo unspecified) | 4.945 |
| `Cc1noc(C)c1CN1CCO[C@H]2CN(Cc3nccn3C)C[C@H]21` | 7.5 |
| `CC(C)Nc1nc2c(c(N(C)C)n1)CCN(C(=O)c1cc[nH]n1)CC2` | 10.8 |
| `CNC(=O)[C@@H]1C[C@H]2CN(Cc3c(C)noc3C)C[C@H]2N1C(C)C` | 15.13 |
| `O=S1(=O)CCC(N(Cc2nc(-c3ccccn3)no2)Cc2cccs2)C1` (stereo unspecified) | -5.307 |
| `Cc1nccc(CNC(=O)N2CCN(Cc3ccccc3)C[C@H]2C)n1` | 17.83 |
| `Cc1ccc(C)c(OC2CCN(C(=O)CNc3ccccc3Cl)CC2)c1` | 7.859 |
| `O=C(C1CCC2(CCN(c3ncccn3)CC2)CO1)N1CCCC1` (stereo unspecified) | 13.87 |
| `COc1cccc(C(C(=O)O)N(C)Cc2ccc(C)o2)c1` (stereo unspecified) | 13.32 |
| `O=C(Cn1ccc2cc(Br)ccc21)NCc1ccc(C(=O)O)cc1` | 8.746 |
| `Cc1ccc(NS(=O)(=O)CC2=NC(=O)n3cccc3C2=O)cc1` | 7.884 |
| `Cc1nccn1-c1ccc(C(=O)NCC(F)(F)F)nn1` | 2.542 |
| `CCC(C)Oc1cc(C(=O)Nc2nnc(C(C)C)[nH]2)ccn1` (stereo unspecified) | 9.971 |
| `Cc1cc(C)c(CNC(=O)CCC2CCCO2)c(=O)[nH]1` (stereo unspecified) | 17.37 |
| `c1cnc(N2CCC(OCCN3CCCCC3)C2)nc1` (stereo unspecified) | 5.177 |
| `O=C1O[C@@H]2CN(Cc3cccc(F)c3)C[C@@H]2N1CCCN1CCOCC1` | 7.805 |
| `Cc1nnc(NC(=O)c2cc(S(=O)(=O)N3CCSCC3)c[nH]2)s1` | 11.14 |
| `Cc1ccccc1C1(CNC(=O)NCCc2nnc3n2CCC3)CC1` | 9.859 |
| `CCS(=O)(=O)Nc1ccc2oc(C)c(C(=O)OC)c2c1` | 9.832 |
| `CS(=O)(=O)N[C@@H]1CN(C(=O)c2ccccn2)C[C@@H]2CCCO[C@@H]21` | 8 |
| `COc1ccc(S(=O)(=O)NCCn2cnc(C)cc2=O)cc1C` | 16.53 |
| `CNC(=O)N1CC[C@H]2N(C)CC[C@@]2(C(=O)N2CCOCC2)CC1` | 15.69 |
| `Cc1noc(C)c1CCC(=O)NCCc1cccs1` | 11.51 |
| `Cc1cc(N2CCC3(CCCN(CCO)C3=O)C2)nc(C)c1C#N` (stereo unspecified) | 17.34 |
| `Cc1noc(C)c1CCCNC(=O)Nc1ccc2c(c1)CC(=O)N2` | 16.03 |
| `Cc1nc(C)c(CC(=O)Nc2nnc(C3CC3)s2)c(=O)[nH]1` | 13.16 |
| `Cc1nc2ccccc2n1CCNCc1cccc(C#N)c1` | 15.49 |
| `O=C(CSc1ccccc1)N1CCc2c(ncnc2N2CCOCC2)C1` | 21.35 |
| `CCNC(=O)C1(Cc2cc(-c3ccc(C)cc3)no2)CCCN(C)C1` (stereo unspecified) | 11.11 |
| `CCOCC(=O)NCCc1nc(C2CC2)cc(C(F)(F)F)n1` | 16.53 |
| `CN(CCN1CCCCCC1)c1nccc(N2CCC(O)C2)n1` (stereo unspecified) | 19.59 |
| `CSCC(=O)N1CCCC(c2cc(C)[nH]n2)C1` (stereo unspecified) | 9.841 |
| `Cc1nc(C)n(CC2CN(Cc3nc4ccccc4n3C)CCO2)n1` (stereo unspecified) | 18.29 |